# PubChem BioAssay AID652243, Drosophila RNAi Screening Center | 2013
# Purpose: 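Knock-downs that decrease or increase androgen receptor reporter signal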 (primary screen)
# Cells: Drosophila S2R+ cells
# Knock-down reagent: long dsRNA against Drosophila genes
# Time to read-out: 72 h (48 h, then 24 h hormone)
# Conditions: synthetic androgen R1881 at 10 nM for 24 h
# Detection: 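Firefly light from an androgen-responsive reporter and Renilla control light per well, raw and unnormalised, for each of two replicates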
# Scale: firefly reporter light: higher = more light from androgen-responsive reporter; Renilla control light: higher = more constitutive control signal (cell number, transfection)
# Hit rule: 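Across duplicate plates, a knock-down whose log firefly/Renilla ratio shifted a set fold down or up from the GFP/LacZ control mean was a hit; the downward cut appears as both 1.5 and 3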
# Meaning of the calls: active = hit: reporter lowered or raised; inactive = no hit
# The deposit covers about 24,000 reagents; below is an unselected part of those with a known target gene and a result. In the full data, 246 (1%) were called active. 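Plates not normalised; calls are printed but the firefly/Renilla ratio behind them is not deposited; fold cut for lowering reported inconsistently.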 Raw values vary from plate to plate and are shown uncorrected. No sequences are given here. Not stated in the record: the amount of reagent.
target gene,dsRNA,"firefly reporter light, replicate 1","firefly reporter light, replicate 2","Renilla control light, replicate 1","Renilla control light, replicate 2",Outcome
Acp63F,DRSC08137,1.57e5,1.67e5,1.27e6,1.84e6,inactive
Hph,DRSC12164,50341,46176,3.55e5,4.58e5,inactive
Hph,DRSC12251,97815,1.27e5,2.08e6,2.32e6,inactive
Hph,DRSC21876,7.49e5,5.50e5,2.25e6,1.44e6,inactive
Hph,DRSC24780,5.58e5,3.22e5,3.41e5,4.74e5,inactive
Hph,DRSC25979,4.31e5,4.84e5,1.12e6,8.85e5,inactive
CG4972,DRSC02798,2.14e5,1.44e5,1.00e6,1.16e6,inactive
Srg2,DRSC10681,3.35e5,5.72e5,5.70e5,9.28e5,inactive
Srg2,DRSC24667,7.24e5,7.08e5,9.73e5,1.15e6,inactive
CG31313,DRSC13044,1.39e5,1.06e5,86752,90897,inactive
lncRNA:CR31647,DRSC21903,4.18e5,4.40e5,1.39e6,1.62e6,inactive
lncRNA:CR31647,DRSC24136,6.93e5,6.84e5,8.39e5,9.21e5,inactive
CG32079,DRSC22636,6.21e5,7.20e5,1.39e6,1.38e6,inactive
CG32248,DRSC08102,3.12e5,3.32e5,3.18e5,3.30e5,inactive
CG32248,DRSC25738,7.15e5,7.73e5,6.23e5,6.49e5,inactive
qless,DRSC15103,2.14e5,2.43e5,2.13e6,3.07e6,inactive
qless,DRSC15507,2.15e5,2.22e5,2.17e6,3.10e6,inactive
5PtaseI,DRSC16269,89876,62680,6.68e5,6.30e5,inactive
5PtaseI,DRSC22090,8.54e5,1.14e6,1.74e6,1.75e6,inactive
5PtaseI,DRSC28773,4.63e5,5.22e5,1.46e6,1.62e6,inactive
CG34427,DRSC09978,1.36e5,2.05e5,2.05e6,2.24e6,inactive
Cyp6t3,DRSC07388,4.59e5,2.05e5,1.53e6,1.25e6,inactive
mRpS24,DRSC28886,6.29e5,5.12e5,1.14e6,1.17e6,inactive
CG34447,DRSC00741,82464,1.24e5,5.40e5,8.43e5,inactive
PI31,DRSC07306,1.14e6,1.43e6,1.86e6,1.70e6,inactive
CG40155 (retired record),DRSC37811,8.58e5,8.19e5,2.06e6,2.07e6,inactive
CG34041,DRSC22276,9.11e5,7.67e5,2.79e6,2.69e6,inactive
CG34041,DRSC30023,5.44e5,6.36e5,1.50e6,1.70e6,inactive
CG4199,DRSC18519,1.22e5,93802,6.56e5,4.04e5,inactive
CG4199,DRSC21314,8.94e5,7.90e5,2.56e6,1.74e6,inactive
CG4199,DRSC27951,1.08e6,7.48e5,3.39e6,1.30e6,inactive
CG14696,DRSC14919,1.21e5,1.42e5,1.73e6,1.72e6,inactive
CG32344,DRSC08578,9.14e5,9.22e5,1.88e6,1.36e6,inactive
CG31220,DRSC22248,5.77e5,7.17e5,2.37e6,2.15e6,inactive
CG31220,DRSC24492,5.23e5,7.23e5,5.53e5,6.54e5,inactive
CG1632,DRSC17558,5.93e5,1.14e6,4.46e5,6.55e5,inactive
CG1632,DRSC18110,5.00e5,4.90e5,2.88e6,4.07e6,inactive
betaCOP,DRSC20312,77323,75358,5.09e5,5.59e5,inactive
betaCOP,DRSC27169,2.22e5,3.08e5,4.82e5,4.54e5,inactive
Cnot4,DRSC02830,1.60e5,2.28e5,1.47e6,1.63e6,inactive
Cnot4,DRSC02831,1.52e5,1.64e5,1.30e6,1.34e6,inactive
CG14315,DRSC14794,1.31e5,1.31e5,1.13e6,1.31e6,inactive
TM9SF3,DRSC09747,1.38e5,1.23e5,1.77e6,1.91e6,inactive
Ent2,DRSC02124,8.51e5,8.78e5,1.74e6,1.15e6,inactive
Ent2,DRSC28879,4.56e5,4.43e5,1.32e6,1.32e6,inactive
Uck,DRSC16028,1.77e5,2.29e5,2.31e6,2.26e6,inactive
Uck,DRSC36952,,,,,inactive
CG33557,DRSC17854,2.80e5,3.59e5,2.71e6,2.53e6,inactive
CG11158,DRSC19389,4.71e5,6.30e5,3.66e6,4.02e6,inactive
hd,DRSC12316,80553,1.20e5,1.86e6,1.63e6,inactive
hd,DRSC26302,3.91e5,3.19e5,7.70e5,5.60e5,inactive
Pof,DRSC04405,7.51e5,6.19e5,1.73e6,1.26e6,inactive
Eip75B,DRSC23047,6.63e5,6.59e5,8.93e5,9.64e5,inactive
Eip75B,DRSC37540,5.64e5,4.60e5,1.61e6,1.21e6,inactive
Bet5,DRSC14600,2.08e5,2.24e5,2.19e6,2.28e6,inactive
Gr47a,DRSC06221,3.08e5,2.09e5,1.97e6,1.69e6,inactive
pyd,DRSC14387,1.17e5,1.19e5,5.27e5,6.67e5,inactive
pyd,DRSC14445,1.55e5,1.98e5,1.09e6,1.17e6,inactive
pyd,DRSC14509,89013,1.40e5,1.24e6,1.26e6,inactive
pyd,DRSC16547,16651,41665,2.09e5,2.46e5,inactive
pyd,DRSC17041,1.02e5,1.15e5,2.11e6,1.96e6,inactive
pyd,DRSC23116,4.43e5,5.81e5,1.38e6,1.83e6,inactive
pyd,DRSC26890,3.21e5,2.35e5,4.44e5,4.66e5,inactive

6 entries from above, ordered by “firefly reporter light, replicate 1”, high to low:
target gene,dsRNA,"firefly reporter light, replicate 1","firefly reporter light, replicate 2","Renilla control light, replicate 1","Renilla control light, replicate 2",Outcome
Eip75B,DRSC37540,5.64e5,4.60e5,1.61e6,1.21e6,inactive
Gr47a,DRSC06221,3.08e5,2.09e5,1.97e6,1.69e6,inactive
Bet5,DRSC14600,2.08e5,2.24e5,2.19e6,2.28e6,inactive
pyd,DRSC14445,1.55e5,1.98e5,1.09e6,1.17e6,inactive
pyd,DRSC14387,1.17e5,1.19e5,5.27e5,6.67e5,inactive
pyd,DRSC14509,89013,1.40e5,1.24e6,1.26e6,inactive
